# Laboratory results: PubChem BioAssay AID180 (DTP/NCI, 2004)
# The list does not hold the whole screen: its compounds were picked by chemical class. Not every dose and run of a compound is shown. T/C: endpoint of the treated group in % of that of the vehicle group. Some entries show no survivor count and are marked so; the dose need not have been tolerated. Schedules are NCI's codes, read here as Q, the interval in days (D) or hours (H), X, the number of doses. Some doses were run more than once; the values are given in rising order.
# System: BDF1 mice, Adenocarcinoma 755 s.c., tumor weight T/C
# Assay: NCI In Vivo Anticancer Drug Screen. Data for tumor model Adenocarcinoma 755 (subcutaneous) in B6D2F1 (BDF1) mice
# Details: T/C endpoint: mean tumor weight, schedule: Q01DX011 (ip), vehicle: carboxymethylcellulose (CMC), evaluation day not shown, higher T/C = larger tumour
# Method: The antitumor activity of compounds was measured in mice bearing transplantable tumors. Survival or tumor size were measured and the results are expressed as the measurement made in the treated group (T) divided by the measurement made in the vehicle treated control group (C). The tumor model used in this assay is Adenocarcinoma 755 (subcutaneous) in B6D2F1 (BDF1) mice
structure (smiles),measurement,setting,value
CN(CCCl)CCCl,T/C,dose: 0.08 mg/kg/injection,117 % of control [survivor count not shown]
same,T/C,dose: 0.09 mg/kg/injection,81 % of control [survivor count not shown]
same,T/C,dose: 0.11 mg/kg/injection,36 % of control [survivor count not shown]
same,T/C,dose: 0.12 mg/kg/injection,67 % of control [survivor count not shown]
same,T/C,dose: 0.18 mg/kg/injection,84 % of control [survivor count not shown]
same,T/C,dose: 0.22 mg/kg/injection,24 % of control [survivor count not shown]
same,T/C,dose: 0.25 mg/kg/injection,101 % of control [survivor count not shown]
same,T/C,dose: 0.27 mg/kg/injection,76 % of control [survivor count not shown]
same,T/C,dose: 0.35 mg/kg/injection,111 % of control [survivor count not shown]
same,T/C,dose: 0.5 mg/kg/injection,50 % of control [survivor count not shown]
same,T/C,dose: 12.0 micrograms/kg/injection,59 % of control [survivor count not shown]
same,T/C,dose: 24.0 micrograms/kg/injection,49 % of control [survivor count not shown]
same,T/C,dose: 44.0 micrograms/kg/injection,"23 [survivor count not shown], 67 [survivor count not shown], 90 % of control [survivor count not shown]"
same,T/C,dose: 48.0 micrograms/kg/injection,74 % of control [survivor count not shown]
same,T/C,dose: 55.0 micrograms/kg/injection,"69 [survivor count not shown], 133 [survivor count not shown], 141 % of control [survivor count not shown]"
same,T/C,dose: 73.0 micrograms/kg/injection,57 [survivor count not shown] and 120 % of control [survivor count not shown]
same,T/C,dose: 95.0 micrograms/kg/injection,99 % of control [survivor count not shown]
same,T/C,dose: 110.0 micrograms/kg/injection,82 [survivor count not shown] and 153 % of control [survivor count not shown]
same,T/C,dose: 220.0 micrograms/kg/injection,98 [survivor count not shown] and 132 % of control [survivor count not shown]
